The campaign covered roughly 330,000 compounds. About 7,700 (2.3%) were called active. Inconclusive means that the source gave no clear call. Such entries were picked first, then a sample of the others. Calls come from the whole dose curve; as a rule, active = well fitted inhibition curve with a large enough effect; inconclusive = small, poorly fitted or top-dose-only effect, or effect the other way; inactive = flat fitted curve, though single readings scatter. A potency beside an inconclusive call is a rough fit, not a confirmed value.
Assay: qHTS screen for small molecules that inhibit ELG1-dependent DNA repair in human embryonic kidney (HEK293T) cells expressing luciferase-tagged ELG1; note: nearly all actives have a fitted effect of over 55% in size
Conditions: HEK293T ELG1-luciferase reporter, luminescence, 16 h, DNA damage induced by 5-fluorouridine; activity change, negative = inhibition: at 46.1 µM (top of the series)
Outline: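 DMSO vehicle served as the neutral condition. Each well held 2,000 cells given 5-fluorouridine plus compound; after 16 hr at 37 °C/5% CO2, ONE-Glo was added and luciferase measured 30 min later.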
In the case of Cc1ccccc1OCCOc1ccccc1C=C(C#N)C#N, the Potency is reported as inconclusive: 20.6 µM [activator, partial curve].
With Cc1c(N=C2N=C(NC(=O)NC(C)(C)C)c3ccccc32)c(=O)n(-c2ccccc2)n1C the Potency was inconclusive: 23.1 µM [inhibitor, single point].
For CN(CC1CCOCC1)C(=O)CC1C(=O)NCCN1Cc1cccc(C(F)(F)F)c1 (centres undefined), the “activity change, negative = inhibition” value was inactive: 1.1%.
In the case of Cc1cc(NCCCn2ccnc2)n2c(nc3ccccc32)c1C#N, the “activity change, negative = inhibition” value is reported as inactive: -17.3%.
In the case of O=C(c1ccc(CNS(=O)(=O)c2ccc(Br)cc2)cc1)N1CCCCC1, the “activity change, negative = inhibition” value is reported as inactive: 10.6%.
For Nc1c(C(=O)Nc2ccc3c(c2)OCCO3)nnn1Cc1ccc(F)cc1, the Potency was inconclusive: 10.3 µM [activator, partial curve].
With O=C(Nc1ccc2c(c1)S(=O)(=O)N=C1CCCCCN12)c1ccccc1Cl the Potency was inconclusive: 18.3 µM [inhibitor, single point].
With O=C(O)CCN1C(=O)/C(=C\c2ccncc2)SC1=S the “activity change, negative = inhibition” value was inactive: 12.6%.
In the case of N=c1c(S(=O)(=O)c2ccccc2)cc2c(=O)n3ccccc3nc2n1Cc1cccnc1, the “activity change, negative = inhibition” value is reported as inactive: -0.74%.
For Cc1ccc(C(=O)NC(=S)NCCCN2CCOCC2)cc1, the Potency was inconclusive: 13 µM [activator, partial curve, poor fit].
In the case of O=S1(=O)CCO[C@H]2Cc3ccccc3[C@H]2N1Cc1cccc(Cl)c1, the Potency is reported as inconclusive: 20.6 µM [activator, single point].
With CC1=N/C(=C\c2ccc([N+](=O)[O-])cc2)C(=O)N1c1ccc(F)cc1F the “activity change, negative = inhibition” value was inactive: 10.6%.
With COc1cccc(NC(=O)Cn2c(=O)n(-c3cc(OC)c(OC)c(OC)c3)c(=O)c3ccccc32)c1 the Potency was inconclusive: 18.3 µM [activator, partial curve].
In the case of COc1ccccc1C1N(c2ccc(Cl)cc2)C(=O)C2CCCN21 (centres undefined), the Potency is reported as inconclusive: 29.1 µM [activator, partial curve, poor fit].
With Cc1ccc(NC(=O)c2cc(=O)c3ccccc3o2)cc1S(=O)(=O)N1CCOCC1 the Potency was active: 23.1 µM.
In the case of CCOc1ccccc1NC(=O)C1CCN(c2ccc(S(=O)(=O)N3CCCC3)cc2)CC1, the Potency is reported as inconclusive: 25.9 µM [inhibitor, single point].
With CC(C)CN(Cc1cc(=O)oc2cc(-c3ccccc3)c(O)cc12)CC(C)C the Potency was inconclusive: 29.1 µM [inhibitor, single point].
With CCOC(=O)N1CCN(C(=O)CSc2nnc(-c3ccc(C(C)(C)C)cc3)o2)CC1 the “activity change, negative = inhibition” value was inactive: -8.09%.
With CCN(CC)S(=O)(=O)c1ccc(N(C)C)c(NC(=O)CSCc2c(C)noc2C)c1 the Potency was active: 20.6 µM.
In the case of CC1(C)Cc2ccccc2C(COc2ccccc2)=N1, the “activity change, negative = inhibition” value is reported as inactive: -8.85%.
For COc1ccc(OC)c(NC(=O)c2cc(-c3cc(C)c(C)cc3O)n[nH]2)c1, the Potency was inconclusive: 7.3 µM [activator, partial curve, poor fit].
In the case of S=C(NCc1cccs1)Nc1cccc(Cl)c1, the “activity change, negative = inhibition” value is reported as inactive: -7.48%.
For N#Cc1ccc(Sc2nc3ccccc3[nH]2)cc1C#N, the Potency was inconclusive: 20.6 µM [inhibitor, single point].
In the case of Cc1ccc(OCc2cc(C(=O)N3CCC(c4ccccc4Cl)C3)no2)cc1C (centres undefined), the Potency is reported as inconclusive: 20.6 µM [activator, partial curve].
For Cc1ccc(NC(=O)NCc2cccn2C)cc1C, the Potency was inconclusive: 18.3 µM [activator, partial curve].
With COc1ccc(-n2nc(C(=O)NCC(=O)NCCc3ccc(OC)c(OC)c3)c3ccccc3c2=O)cc1 the Potency was active: 16.4 µM.
With Cc1cccc(NC(=O)CCN2CCN(C/C=C/c3ccccc3)CC2)c1 the Potency was inconclusive: 29.1 µM [inhibitor, single point].
In the case of CCOc1cc(/C=N/Nc2ccc(C(=O)O)cc2)ccc1OC(=O)c1ccccc1C, the Potency is reported as inconclusive: 8.2 µM [activator, partial curve, poor fit].
In the case of O=C(c1cc(-c2ccccc2O)on1)N1CCCC1, the Potency is reported as inconclusive: 5.17 µM [activator, partial curve].
For CCN(CC)C(=O)CSc1ncnc2sc(-c3ccccc3)cc12, the Potency was inconclusive: 6.51 µM [activator, partial curve, poor fit].
With COCCn1c(=O)[nH]c2cc(C(=O)N3CCN(c4cccc(Cl)c4)CC3)ccc2c1=O the Potency was inconclusive: 25.9 µM [inhibitor, single point].
In the case of Cc1cc(NC(=O)/C=C/c2ccc(Cl)cc2)no1, the Potency is reported as inconclusive: 18.4 µM [activator, partial curve].
In the case of Cc1ccc(S(=O)(=O)N2CCCC2C(=O)Nc2nc3ccccc3s2)cc1 (centres undefined), the Potency is reported as inconclusive: 23.1 µM [inhibitor, partial curve].
In the case of O=C(c1ccc(Cl)cc1)c1oc2ccccc2c1CS(=O)c1ccc(Cl)cc1 (centres undefined), the “activity change, negative = inhibition” value is reported as inactive: 5.23%.
For Cc1ccc(N2CCN(C(=S)c3ccc(-c4cccc([N+](=O)[O-])c4)o3)CC2)cc1, the “activity change, negative = inhibition” value was inactive: -24.3%.
For CC(C)[C@H](NS(=O)(=O)c1ccccc1F)C(=O)OCC(=O)Nc1cccc(S(N)(=O)=O)c1, the “activity change, negative = inhibition” value was inactive: 6%.
With CN(C)CCCN(C(=O)c1ccc(S(=O)(=O)N2CCCCCC2)cc1)c1nc2c(F)cc(F)cc2s1 the Potency was inconclusive: 25.9 µM [inhibitor, single point].
In the case of COc1ccc(-c2cc(=Nc3ccc(C)cc3)c3ccccc3o2)cc1, the Potency is reported as inconclusive: 25.9 µM [inhibitor, single point].
For CCN1CCN(Cc2ccc(NC(=O)c3cc(NC(=O)C4=NN(c5ccccc5)C(=O)C4)cc(OC)c3)cc2C(F)(F)F)CC1, the Potency was inconclusive: 29.1 µM [activator, partial curve, poor fit].
In the case of Cc1noc(C)c1COc1cccc(C(=O)N2CCc3ccccc32)c1, the Potency is reported as inconclusive: 29.1 µM [inhibitor, single point].
For Cc1cccc(-n2c(O)c(C=NCc3ccccn3)c3ccccc3c2=O)c1, the Potency was inconclusive: 20.6 µM [inhibitor, partial curve].
With O=C(COc1ccc(Br)cc1)NCCCNC(=O)c1cccnc1 the “activity change, negative = inhibition” value was inactive: 0.838%.
In the case of Nc1ccc(S(=O)(=O)NCC(=O)OCCOc2ccccc2)cc1[N+](=O)[O-], the “activity change, negative = inhibition” value is reported as inactive: 15%.
In the case of CN(CC(=O)N1CCc2ccccc21)S(=O)(=O)c1ccc(Br)s1, the Potency is reported as inconclusive: 20.6 µM [activator, single point].
With O=C(c1ccc(Br)cc1)N1CCCc2ccccc21 the “activity change, negative = inhibition” value was inactive: 2.94%.
In the case of O=C(/C(=C(\[O-])c1ccccc1)[n+]1ccc2ccccc2c1)c1ccccc1, the Potency is reported as inconclusive: 18.4 µM [activator, partial curve].
With O=C(/C=C/c1cccc([N+](=O)[O-])c1)NCCSCc1ccc(Cl)cc1 the Potency was inconclusive: 29.1 µM [inhibitor, partial curve, poor fit].
In the case of CCCOC(=O)c1ccc(Oc2c(-c3ccc(OC)cc3O)n[nH]c2C)cc1, the Potency is reported as inconclusive: 29.1 µM [inhibitor, single point].
With COc1ccc(SCCN2CC[C@@H](C)CCC2=O)cc1 the Potency was inconclusive: 20.6 µM [activator, partial curve].
In the case of O=C(Oc1c(-c2ccccc2)c(=O)n2c3c(cccc13)CC2)c1ccco1, the Potency is reported as inconclusive: 13 µM [activator, single point].
For C=CCn1c(SCC(=O)Nc2cc(OC)c(NC(=O)c3ccco3)cc2OC)nnc1-c1ccncc1, the Potency was active: 23.1 µM.
With N#Cc1c(/N=C/N2CCOCC2)sc2c1CCCCC2 the Potency was inconclusive: 5.8 µM [activator, partial curve].
With C=CCn1c(SCC(=O)c2[nH]c(C)c(C(C)=O)c2C)nnc1-c1ccncc1 the “activity change, negative = inhibition” value was inactive: -13.7%.
In the case of Nc1nnc(CCc2ccccc2)s1, the Potency is reported as inconclusive: 29.1 µM [activator, single point].
With CCCCN1C=CC(=C2N=c3cccc([N+](=O)[O-])c3=N2)C=C1 the Potency was inconclusive: 16.4 µM [activator, partial curve].
In the case of Cc1ccc(Cl)cc1N1CCN(S(=O)(=O)c2c(C(=O)N3CCOCC3)c(C)n(C)c2C)CC1, the Potency is reported as inconclusive: 29.1 µM [inhibitor, single point].
With COc1ccc(C(C)=O)cc1CSc1nnc(-c2ccccc2O)n1-c1ccccc1 the Potency was inconclusive: 29.1 µM [inhibitor, single point].
In the case of Cc1ccc(NCC(=O)N=Nc2c(O)n(C)c3ccccc23)cc1, the “activity change, negative = inhibition” value is reported as inactive: -14%.
For Cc1ccccc1Nc1nnc(C)c(=O)[nH]1, the “activity change, negative = inhibition” value was inactive: 1.45%.
In the case of Brc1ccc2ncnc(Nc3ccc(N4CCOCC4)cc3)c2c1, the Potency is reported as active: 6.51 µM.
For O=C(CSc1nnc(-c2cccc(F)c2)o1)N1CCCC1, the Potency was inconclusive: 18.3 µM [activator, partial curve].
With COc1ccc(-n2c(CNc3ccc(C)cc3)nnc2SCC(=O)Nc2nc(-c3ccccc3)cs2)cc1 the Potency was inconclusive: 31.6 µM [activator, single point].
With CCCCCOc1ccc(C(=O)CCC(=O)NNC(=O)c2ccncc2)cc1 the Potency was inconclusive: 32.6 µM [activator, single point].
With COCCNc1nc2c(c(=O)n(Cc3cccc(Cl)c3)c(=O)n2C)n1C the Potency was inconclusive: 14.6 µM [inhibitor, partial curve, poor fit].
For Cc1cc(C)c(S(=O)(=O)N2CCN(C(=O)N(C)C)CC2)c(C)c1, the “activity change, negative = inhibition” value was inactive: -3.64%.
For COc1ccc2cc3cc(C(=O)NCCN4CCN(Cc5ccccc5)CC4)oc3nc2c1, the “activity change, negative = inhibition” value was inactive: 3.68%.
In the case of COc1ccc(C(CC(=O)c2ccc(O)cc2)S(=O)(=O)c2ccc(C)cc2)cc1 (centres undefined), the Potency is reported as inconclusive: 14.6 µM [activator, partial curve].
For c1ccc2nc(-c3ccc4c(c3)OCO4)ccc2c1, the Potency was inconclusive: 4.11 µM [activator, partial curve].
With CCN1C(=O)/C(=C\N2CCCc3ccccc32)SC1=S the Potency was inconclusive: 20.6 µM [activator, partial curve, poor fit].

Reference: PubChem BioAssay AID504467 (National Center for Advancing Translational Sciences (NCATS), 2011)
% is set by controls: 0 for no effect and ±100 for the full control effect; potency is the fitted concentration of half-maximal effect.
